Assay results reported in US20240247077A1 (CLEMSON UNIVERSITY RESEARCH FOUNDATION, published 2024).
No constants are given. Whether binding was seen depends on the method and setting. Some entries that bind do so weakly or less than the wild type.

What was measured:
[1] = biological target: T1, core vertebrate CYP1A sequence … (conserved CYP1A1 epitope peptide) (all vertebrates listed in Table 1); experiment: summary of the peptide ELISAs
T1 sequence (peptide): IRDITDSLI

[2] = biological target: T1, core vertebrate CYP1A sequence … (conserved CYP1A1 epitope peptide) (all vertebrates listed in Table 1); experiment: ELISA on the core peptide
[3] = biological target: T2, synthetic zebrafish CYP1A peptide used for immunizations (unconjugated) (zebrafish (D. rerio)); experiment: ELISA on unconjugated peptide; criterion: at least three-fold the OD of an irrelevant antibody
T2 sequence (peptide): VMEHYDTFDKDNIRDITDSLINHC

[4] = biological target: T2, synthetic zebrafish CYP1A peptide used for immunizations (unconjugated) (zebrafish (D. rerio)); experiment: ELISA, plate-bound peptide, hybridoma supernatant
[5] = biological target: T2, synthetic zebrafish CYP1A peptide used for immunizations (unconjugated) (zebrafish (D. rerio)); experiment: ELISA on unconjugated peptide, hybridoma supernatant
[6] = biological target: mAb CRC4; experiment: competition ELISA, serially diluted core peptide pre-mixed with supernatant, plate coated with zebrafish peptide
[7] = biological target: mAb CRC4; experiment: competition ELISA, soluble core peptide against plate-bound zebrafish peptide

Measured: binding

B1: mAb CRC4 (antibody, mouse IgG1, kappa, V domains shown)
VH: QVTLKESGPGILQPSQTLSLTCSFSGFSLSTSGMGVNWIRKPSGKGLEWLAHIFWDDDKRYNPSLKSRLTISKDTSRNQVFLMITSVDTADTATYYCASLAMDYWGQGTSVTVSS
VL: DIVMTQGASSVTVTPGESVSISCRSSKSLLHSNGRTFLYWFLQRPGQSPQLLIYRMSNLASGVPDRVSGSGSGTAFTLRISRVEAEDVGVYYCMQHLEYPFTFGGGTRLELKR
notes: Mouse IgG1 kappa from a hybridoma, used as confluent hybridoma supernatant (nominally 3 ug/mL after 1:10 dilution); also called monoclonal antibody CRC4; CRC4_1
binds: [1] | [2] | [3] | [4] | [5]

IRDITDSLI [core vertebrate CYP1A sequence … (conserved CYP1A1 epitope peptide)]
binds: [6] | [7]
